Assay results published in the supplement of paper PMC12819154, “High-throughput peptide-centric local stability assay extends protein–ligand identification to membrane proteins, tissues and bacteria” (Nature Structural & Molecular Biology, 2025).
The list shows a part of the results. Small differences around the control level are noise.

Amino acid sequences for entries named in this document (tags omitted). A change or cut given only in a name is not applied to a line headed by its entry.
UniProt Q96LT9: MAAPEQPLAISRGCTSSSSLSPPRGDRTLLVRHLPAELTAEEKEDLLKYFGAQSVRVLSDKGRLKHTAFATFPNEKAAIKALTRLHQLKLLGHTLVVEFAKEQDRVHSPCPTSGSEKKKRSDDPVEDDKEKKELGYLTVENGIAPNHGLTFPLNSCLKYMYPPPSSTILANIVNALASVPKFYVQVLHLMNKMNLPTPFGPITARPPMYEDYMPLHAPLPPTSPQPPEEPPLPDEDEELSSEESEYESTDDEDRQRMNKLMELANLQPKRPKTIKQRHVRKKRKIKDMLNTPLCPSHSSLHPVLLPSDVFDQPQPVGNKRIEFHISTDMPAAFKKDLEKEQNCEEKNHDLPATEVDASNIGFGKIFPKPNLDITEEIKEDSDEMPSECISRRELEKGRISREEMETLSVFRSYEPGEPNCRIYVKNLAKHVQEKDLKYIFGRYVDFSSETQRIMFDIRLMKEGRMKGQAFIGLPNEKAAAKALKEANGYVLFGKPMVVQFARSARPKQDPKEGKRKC
UniProt Q96JB5: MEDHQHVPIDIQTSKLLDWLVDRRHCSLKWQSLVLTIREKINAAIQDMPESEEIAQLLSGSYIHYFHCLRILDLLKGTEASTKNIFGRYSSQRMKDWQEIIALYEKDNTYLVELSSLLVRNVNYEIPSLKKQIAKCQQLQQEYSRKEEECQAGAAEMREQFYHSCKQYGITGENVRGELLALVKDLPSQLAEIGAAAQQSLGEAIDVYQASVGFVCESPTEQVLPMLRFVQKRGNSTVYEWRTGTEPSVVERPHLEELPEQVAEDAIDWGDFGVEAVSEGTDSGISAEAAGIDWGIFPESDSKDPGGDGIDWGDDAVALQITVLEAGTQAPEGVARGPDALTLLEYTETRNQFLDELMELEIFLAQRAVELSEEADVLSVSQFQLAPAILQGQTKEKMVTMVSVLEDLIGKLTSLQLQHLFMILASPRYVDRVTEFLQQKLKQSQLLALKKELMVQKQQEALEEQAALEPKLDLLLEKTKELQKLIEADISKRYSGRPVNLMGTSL
UniProt Q96HJ9: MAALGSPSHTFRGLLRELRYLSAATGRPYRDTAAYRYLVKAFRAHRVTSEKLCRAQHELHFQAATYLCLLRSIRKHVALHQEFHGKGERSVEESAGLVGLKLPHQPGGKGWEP
UniProt Q96LW1: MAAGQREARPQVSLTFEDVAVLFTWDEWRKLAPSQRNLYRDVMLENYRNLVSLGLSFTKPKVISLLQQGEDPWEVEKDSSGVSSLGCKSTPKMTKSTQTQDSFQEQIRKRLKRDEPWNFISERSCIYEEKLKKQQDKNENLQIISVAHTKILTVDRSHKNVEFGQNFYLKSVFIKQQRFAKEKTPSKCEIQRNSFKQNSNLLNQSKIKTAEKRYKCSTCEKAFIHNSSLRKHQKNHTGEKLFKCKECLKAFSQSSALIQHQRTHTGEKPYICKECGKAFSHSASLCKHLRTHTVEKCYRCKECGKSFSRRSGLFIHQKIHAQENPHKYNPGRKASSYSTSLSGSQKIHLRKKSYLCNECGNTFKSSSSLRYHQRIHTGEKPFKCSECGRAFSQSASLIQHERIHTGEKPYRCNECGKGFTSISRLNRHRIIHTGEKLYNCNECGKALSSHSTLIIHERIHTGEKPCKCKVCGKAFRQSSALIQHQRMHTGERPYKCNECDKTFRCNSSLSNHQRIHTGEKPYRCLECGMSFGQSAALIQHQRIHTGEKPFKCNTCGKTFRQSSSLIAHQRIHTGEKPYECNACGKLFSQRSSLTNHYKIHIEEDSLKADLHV
UniProt Q96P71: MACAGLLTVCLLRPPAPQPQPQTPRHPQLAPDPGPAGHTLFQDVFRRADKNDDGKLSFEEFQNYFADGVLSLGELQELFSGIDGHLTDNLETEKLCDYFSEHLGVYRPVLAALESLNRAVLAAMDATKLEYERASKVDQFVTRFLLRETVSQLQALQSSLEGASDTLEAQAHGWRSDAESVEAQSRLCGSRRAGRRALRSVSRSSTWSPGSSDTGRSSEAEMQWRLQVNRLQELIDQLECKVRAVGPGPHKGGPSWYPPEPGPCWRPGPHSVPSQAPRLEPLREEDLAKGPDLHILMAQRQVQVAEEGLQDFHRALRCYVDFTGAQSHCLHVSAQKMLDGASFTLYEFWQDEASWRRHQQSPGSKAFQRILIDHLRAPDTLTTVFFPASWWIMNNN
UniProt Q96G01: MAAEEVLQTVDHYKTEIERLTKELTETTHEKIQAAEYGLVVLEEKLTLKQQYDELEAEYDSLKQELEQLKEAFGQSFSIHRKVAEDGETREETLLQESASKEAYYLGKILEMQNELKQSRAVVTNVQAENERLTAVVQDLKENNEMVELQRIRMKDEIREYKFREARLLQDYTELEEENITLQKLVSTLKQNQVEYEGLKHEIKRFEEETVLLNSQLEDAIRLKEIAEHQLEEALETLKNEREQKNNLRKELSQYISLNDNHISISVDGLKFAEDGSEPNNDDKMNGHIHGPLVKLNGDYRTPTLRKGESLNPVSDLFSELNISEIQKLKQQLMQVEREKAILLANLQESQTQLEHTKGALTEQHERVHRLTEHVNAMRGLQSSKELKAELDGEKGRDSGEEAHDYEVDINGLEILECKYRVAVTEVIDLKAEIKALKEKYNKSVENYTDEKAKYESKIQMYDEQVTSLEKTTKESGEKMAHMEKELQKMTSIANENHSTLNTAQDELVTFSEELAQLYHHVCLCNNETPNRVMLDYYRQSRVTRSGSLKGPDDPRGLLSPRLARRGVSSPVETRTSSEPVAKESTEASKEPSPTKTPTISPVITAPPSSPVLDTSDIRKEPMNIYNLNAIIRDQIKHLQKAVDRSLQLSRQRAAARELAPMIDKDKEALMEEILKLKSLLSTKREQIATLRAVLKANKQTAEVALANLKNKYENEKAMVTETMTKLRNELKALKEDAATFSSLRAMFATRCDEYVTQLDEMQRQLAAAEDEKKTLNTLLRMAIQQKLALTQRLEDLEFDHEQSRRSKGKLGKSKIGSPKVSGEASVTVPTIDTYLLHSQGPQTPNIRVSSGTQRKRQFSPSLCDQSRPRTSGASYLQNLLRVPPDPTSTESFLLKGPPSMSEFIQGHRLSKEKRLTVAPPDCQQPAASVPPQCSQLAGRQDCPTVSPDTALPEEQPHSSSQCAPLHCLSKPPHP
UniProt Q96PQ6: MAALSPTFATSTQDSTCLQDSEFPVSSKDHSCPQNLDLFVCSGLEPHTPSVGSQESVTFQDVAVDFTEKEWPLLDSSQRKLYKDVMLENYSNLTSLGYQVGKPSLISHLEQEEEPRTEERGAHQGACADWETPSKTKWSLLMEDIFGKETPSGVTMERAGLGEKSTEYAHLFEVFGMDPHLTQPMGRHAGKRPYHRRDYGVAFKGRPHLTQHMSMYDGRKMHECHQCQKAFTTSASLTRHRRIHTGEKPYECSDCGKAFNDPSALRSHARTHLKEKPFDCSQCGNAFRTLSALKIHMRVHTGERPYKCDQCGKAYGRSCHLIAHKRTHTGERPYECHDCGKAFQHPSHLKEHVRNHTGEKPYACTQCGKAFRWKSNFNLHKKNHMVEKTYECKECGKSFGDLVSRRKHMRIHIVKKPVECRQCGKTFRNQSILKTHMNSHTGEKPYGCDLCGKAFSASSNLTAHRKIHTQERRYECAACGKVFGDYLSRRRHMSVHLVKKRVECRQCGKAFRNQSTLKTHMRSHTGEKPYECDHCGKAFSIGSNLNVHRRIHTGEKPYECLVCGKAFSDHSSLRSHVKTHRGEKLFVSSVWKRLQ
UniProt Q96KM6: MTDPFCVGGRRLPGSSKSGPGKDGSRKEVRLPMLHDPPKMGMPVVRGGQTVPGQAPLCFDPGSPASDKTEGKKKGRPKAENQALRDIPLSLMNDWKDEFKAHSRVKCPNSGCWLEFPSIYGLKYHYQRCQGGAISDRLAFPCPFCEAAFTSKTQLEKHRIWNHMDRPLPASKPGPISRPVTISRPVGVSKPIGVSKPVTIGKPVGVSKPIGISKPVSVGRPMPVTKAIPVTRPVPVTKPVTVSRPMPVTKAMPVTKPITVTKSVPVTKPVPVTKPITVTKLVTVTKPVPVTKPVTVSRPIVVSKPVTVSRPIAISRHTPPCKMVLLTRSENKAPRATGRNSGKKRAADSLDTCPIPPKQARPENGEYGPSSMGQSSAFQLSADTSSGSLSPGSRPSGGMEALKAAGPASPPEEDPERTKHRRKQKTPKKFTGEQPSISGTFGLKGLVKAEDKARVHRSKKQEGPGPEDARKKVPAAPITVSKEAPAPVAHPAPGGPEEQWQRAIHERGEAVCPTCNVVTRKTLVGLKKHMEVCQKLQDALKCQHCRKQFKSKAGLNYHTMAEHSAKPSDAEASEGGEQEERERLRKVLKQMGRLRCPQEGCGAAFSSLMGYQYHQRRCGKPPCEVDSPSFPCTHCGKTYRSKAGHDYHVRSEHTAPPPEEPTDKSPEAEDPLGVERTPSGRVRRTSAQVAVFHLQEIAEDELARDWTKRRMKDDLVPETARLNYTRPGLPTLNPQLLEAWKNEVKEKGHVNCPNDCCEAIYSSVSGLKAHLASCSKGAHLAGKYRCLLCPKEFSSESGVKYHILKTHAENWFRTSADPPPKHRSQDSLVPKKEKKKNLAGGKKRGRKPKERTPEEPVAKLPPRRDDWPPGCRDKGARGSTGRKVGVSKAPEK
UniProt Q96NY9: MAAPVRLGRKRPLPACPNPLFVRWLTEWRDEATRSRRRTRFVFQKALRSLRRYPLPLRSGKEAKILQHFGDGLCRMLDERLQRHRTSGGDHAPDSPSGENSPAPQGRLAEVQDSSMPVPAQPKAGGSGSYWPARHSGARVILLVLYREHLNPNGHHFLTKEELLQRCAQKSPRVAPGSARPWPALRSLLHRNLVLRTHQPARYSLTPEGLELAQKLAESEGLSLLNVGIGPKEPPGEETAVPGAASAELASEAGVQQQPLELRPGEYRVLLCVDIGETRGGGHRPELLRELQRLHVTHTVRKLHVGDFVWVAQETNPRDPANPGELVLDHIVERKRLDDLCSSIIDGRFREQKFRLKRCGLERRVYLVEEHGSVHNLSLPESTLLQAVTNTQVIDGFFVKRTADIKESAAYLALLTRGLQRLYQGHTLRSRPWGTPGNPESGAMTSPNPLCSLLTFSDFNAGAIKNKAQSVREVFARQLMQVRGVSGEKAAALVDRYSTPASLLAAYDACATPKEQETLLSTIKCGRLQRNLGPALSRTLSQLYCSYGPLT

The targets below were run with Cc1nc(Nc2ncc(C(=O)Nc3c(C)cccc3Cl)s2)cc(N2CCN(CCO)CC2)n1 [dasatinib] (assay: log2 fold change of tryptic peptide abundance, ligand vs vehicle (limited proteolysis) (log2 ratio); higher = more trypsin-susceptible (destabilized)). Details: ligand concentration: 5 uM; sample: K562 cleared lysate.
“RNPC3 (peptide sequence: LKHTAFATFPNEK, peptide start residue: 64) (UniProt Q96LT9)” gave a log2 fold change of -0.232. “CDK5RAP3 (peptide sequence: ILDLLKGTEASTK, peptide start residue: 71) (UniProt Q96JB5)” gave a log2 fold change of 0.734. “FMC1 (peptide sequence: HVALHQEFHGK, peptide start residue: 76) (UniProt Q96HJ9)” gave a log2 fold change of -0.726. Target “UniProt Q96LW1 (peptide sequence: KHQKNHTGEK, peptide start residue: 231)” has a log2 fold change of -0.259. “EAF1 (peptide sequence: PPVGPKTSPLK, peptide start residue: 151) (UniProt Q96JC9)” gave a log2 fold change of -0.153. “UniProt Q96P71 (peptide sequence: SSTWSPGSSDTGR, peptide start residue: 204)” was tested, and the log2 fold change was -0.476. “BICD1 (peptide sequence: LTEHVNAMR, peptide start residue: 371) (UniProt Q96G01)” gave a log2 fold change of 0.374. Target “ZNF317 (peptide sequence: GAHQGACADWETPSK, peptide start residue: 121) (UniProt Q96PQ6)” has a log2 fold change of 0.496. “ZNF512B (peptide sequence: KVPAAPITVSK, peptide start residue: 472) (UniProt Q96KM6)” gave a log2 fold change of -0.461. “MUS81 (peptide sequence: RLDDLCSSIIDGR, peptide start residue: 336) (UniProt Q96NY9)” showed a log2 fold change of -0.328.
